For at least one entry, the source does not settle the construct or the ends of the probe. For some of these results: Results from cells or extracts need not show a direct contact. For some of these results: Weaker means in comparison with the reference protein, sequence or condition of that experiment. For some of these results: Where a protein sequence is shown, tags need not be part of it. For some of these results: At least one verdict rests on a figure or table, not on a statement of the authors.
Columns and labels:
RelA RHR homodimer = RelA RHR homodimer (UniProt Q04207); assay: EMSA; conditions: purified protein, control; EMSA: 10 mM Tris-HCl pH 7.5, 150 mM NaCl, 1 mM DTT, 1 mM EDTA, 5% glycerol, 80 ng/ul dI-dC, 200 ng/ul BSA, 4 C; off-rate with 100-fold unlabeled consensus; recombinant protein; label: 32P
Rel RHR homodimer = Rel RHR homodimer (UniProt P15307); assay: EMSA; conditions: purified protein, control; EMSA: 10 mM Tris-HCl pH 7.5, 150 mM NaCl, 1 mM DTT, 1 mM EDTA, 5% glycerol, 80 ng/ul dI-dC, 200 ng/ul BSA, 4 C; off-rate with 100-fold unlabeled consensus; recombinant protein; label: 32P
[1] = biological target: Rel RHR zebrafish (zebrafish) (UniProt A0ACM8Q4Y4); assay: EMSA off-rate; conditions: comparable to zebrafish RelA; EMSA: 10 mM Tris-HCl pH 7.5, 150 mM NaCl, 1 mM DTT, 1 mM EDTA, 5% glycerol, 80 ng/ul dI-dC, 200 ng/ul BSA, 4 C; off-rate with 100-fold unlabeled consensus; protein in a lysate after overexpression; protein details: N-terminal Flag; label: 32P
[2] = biological target: T1, Rel RHR chicken (chicken) (UniProt P16236); assay: EMSA off-rate; conditions: comparable to chicken RelA; EMSA: 10 mM Tris-HCl pH 7.5, 150 mM NaCl, 1 mM DTT, 1 mM EDTA, 5% glycerol, 80 ng/ul dI-dC, 200 ng/ul BSA, 4 C; off-rate with 100-fold unlabeled consensus; protein in a lysate after overexpression; protein details: N-terminal Flag; label: 32P
T1 sequence (looked up, limits assumed): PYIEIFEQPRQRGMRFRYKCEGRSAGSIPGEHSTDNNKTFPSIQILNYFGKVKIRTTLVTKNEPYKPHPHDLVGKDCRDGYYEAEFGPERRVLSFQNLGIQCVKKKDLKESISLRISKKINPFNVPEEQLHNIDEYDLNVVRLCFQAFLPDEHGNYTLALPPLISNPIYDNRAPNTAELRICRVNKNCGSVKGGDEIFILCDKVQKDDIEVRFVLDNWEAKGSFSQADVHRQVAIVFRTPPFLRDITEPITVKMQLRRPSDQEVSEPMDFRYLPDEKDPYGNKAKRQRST

By UniProt entry, the sequences of proteins in these tests, tags left out. Residues count along the entry.
UniProt Q04207, 19-306: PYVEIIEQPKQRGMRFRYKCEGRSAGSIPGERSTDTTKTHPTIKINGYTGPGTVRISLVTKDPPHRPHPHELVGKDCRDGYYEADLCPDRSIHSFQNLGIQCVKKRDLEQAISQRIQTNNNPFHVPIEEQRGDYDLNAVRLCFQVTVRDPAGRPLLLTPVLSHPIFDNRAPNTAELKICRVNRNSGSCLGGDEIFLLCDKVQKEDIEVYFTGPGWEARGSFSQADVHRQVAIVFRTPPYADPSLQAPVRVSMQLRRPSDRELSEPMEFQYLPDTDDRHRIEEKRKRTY
UniProt A0ACM8Q4Y4, entry or part of it: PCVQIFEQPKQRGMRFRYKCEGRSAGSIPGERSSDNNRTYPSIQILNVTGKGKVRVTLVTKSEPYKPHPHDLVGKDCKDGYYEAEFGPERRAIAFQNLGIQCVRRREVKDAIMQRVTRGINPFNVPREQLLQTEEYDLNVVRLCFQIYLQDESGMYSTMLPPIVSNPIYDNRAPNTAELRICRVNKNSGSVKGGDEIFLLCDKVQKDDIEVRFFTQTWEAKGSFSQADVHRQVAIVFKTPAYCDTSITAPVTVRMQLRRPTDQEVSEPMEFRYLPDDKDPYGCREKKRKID
UniProt Q04206, 19-306: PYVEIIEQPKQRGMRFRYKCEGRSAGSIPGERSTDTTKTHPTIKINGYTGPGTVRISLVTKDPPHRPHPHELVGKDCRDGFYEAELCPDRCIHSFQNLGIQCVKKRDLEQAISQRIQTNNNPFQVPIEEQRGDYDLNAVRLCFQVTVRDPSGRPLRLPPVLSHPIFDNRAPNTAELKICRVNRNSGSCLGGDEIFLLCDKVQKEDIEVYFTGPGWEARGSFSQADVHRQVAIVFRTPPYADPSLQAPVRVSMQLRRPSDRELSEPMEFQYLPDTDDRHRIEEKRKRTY

[3] = biological target: T2, Rel RHR human (Homo sapiens) (UniProt Q04864); assay: EMSA off-rate; conditions: much slower off-rate than human RelA; EMSA: 10 mM Tris-HCl pH 7.5, 150 mM NaCl, 1 mM DTT, 1 mM EDTA, 5% glycerol, 80 ng/ul dI-dC, 200 ng/ul BSA, 4 C; off-rate with 100-fold unlabeled consensus; protein in a lysate after overexpression; protein details: N-terminal Flag; label: 32P
T2 sequence (looked up, limits assumed): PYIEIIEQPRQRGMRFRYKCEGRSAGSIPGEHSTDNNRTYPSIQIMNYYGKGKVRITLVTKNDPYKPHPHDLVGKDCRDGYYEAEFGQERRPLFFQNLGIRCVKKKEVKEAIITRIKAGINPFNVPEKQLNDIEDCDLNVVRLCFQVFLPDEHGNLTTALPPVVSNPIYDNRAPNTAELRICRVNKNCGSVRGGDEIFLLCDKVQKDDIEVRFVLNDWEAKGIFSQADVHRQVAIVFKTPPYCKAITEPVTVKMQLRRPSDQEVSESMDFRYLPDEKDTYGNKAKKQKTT

Rel RHR R101A R108A = Rel RHR R101A R108A (UniProt P15307); assay: EMSA off-rate; conditions: faster off-rate than R101Q; EMSA: 10 mM Tris-HCl pH 7.5, 150 mM NaCl, 1 mM DTT, 1 mM EDTA, 5% glycerol, 80 ng/ul dI-dC, 200 ng/ul BSA, 4 C; off-rate with 100-fold unlabeled consensus; protein in a lysate after overexpression; label: 32P
Rel RHR C137Y C143Y = Rel RHR C137Y C143Y (UniProt P15307); assay: EMSA off-rate; conditions: no impact versus WT; EMSA: 10 mM Tris-HCl pH 7.5, 150 mM NaCl, 1 mM DTT, 1 mM EDTA, 5% glycerol, 80 ng/ul dI-dC, 200 ng/ul BSA, 4 C; off-rate with 100-fold unlabeled consensus; protein in a lysate after overexpression; label: 32P
Rel RHR mouse (mouse) = Rel RHR mouse (mouse) (UniProt P15307); assay: EMSA off-rate; conditions: much slower off-rate than mouse RelA; EMSA: 10 mM Tris-HCl pH 7.5, 150 mM NaCl, 1 mM DTT, 1 mM EDTA, 5% glycerol, 80 ng/ul dI-dC, 200 ng/ul BSA, 4 C; off-rate with 100-fold unlabeled consensus; protein in a lysate after overexpression; protein details: N-terminal Flag; label: 32P
Rel RHR R101Q R108Q = Rel RHR R101Q R108Q (UniProt P15307); assay: EMSA off-rate; conditions: faster off-rate than WT; EMSA: 10 mM Tris-HCl pH 7.5, 150 mM NaCl, 1 mM DTT, 1 mM EDTA, 5% glycerol, 80 ng/ul dI-dC, 200 ng/ul BSA, 4 C; off-rate with 100-fold unlabeled consensus; protein in a lysate after overexpression; label: 32P
RelA RHR frog (frog) = assay: EMSA off-rate; conditions: faster off-rate than frog Rel; EMSA: 10 mM Tris-HCl pH 7.5, 150 mM NaCl, 1 mM DTT, 1 mM EDTA, 5% glycerol, 80 ng/ul dI-dC, 200 ng/ul BSA, 4 C; off-rate with 100-fold unlabeled consensus; protein in a lysate after overexpression; protein details: N-terminal Flag; label: 32P
[4] = tested on: RelA RHR elephant shark (elephant shark); assay: EMSA off-rate; conditions: comparable to elephant shark Rel; EMSA: 10 mM Tris-HCl pH 7.5, 150 mM NaCl, 1 mM DTT, 1 mM EDTA, 5% glycerol, 80 ng/ul dI-dC, 200 ng/ul BSA, 4 C; off-rate with 100-fold unlabeled consensus; protein in a lysate after overexpression; protein details: N-terminal Flag; label: 32P
[5] = tested on: Rel RHR elephant shark (elephant shark); assay: EMSA off-rate; conditions: comparable to elephant shark RelA; EMSA: 10 mM Tris-HCl pH 7.5, 150 mM NaCl, 1 mM DTT, 1 mM EDTA, 5% glycerol, 80 ng/ul dI-dC, 200 ng/ul BSA, 4 C; off-rate with 100-fold unlabeled consensus; protein in a lysate after overexpression; protein details: N-terminal Flag; label: 32P
[6] = biological target: RelA RHR human (Homo sapiens) (UniProt Q04206); assay: EMSA off-rate; conditions: faster off-rate than human Rel; EMSA: 10 mM Tris-HCl pH 7.5, 150 mM NaCl, 1 mM DTT, 1 mM EDTA, 5% glycerol, 80 ng/ul dI-dC, 200 ng/ul BSA, 4 C; off-rate with 100-fold unlabeled consensus; protein in a lysate after overexpression; protein details: N-terminal Flag; label: 32P

“CCTAACATCAGGGAATTTCCTGATGTTAGG (double strand) [consensus NF-κB]”: binds (RelA RHR homodimer); binds (Rel RHR homodimer); binds [1]. “CCTAACATCAGGGAATTTCCTGATGTTAGG (double strand) [consensus NF-κB]”: binds [2]; binds [3]; binds more weakly (Rel RHR R101A R108A). “CCTAACATCAGGGAATTTCCTGATGTTAGG (double strand) [consensus NF-κB]”: binds (Rel RHR C137Y C143Y); binds (Rel RHR mouse (mouse)); binds more weakly (Rel RHR R101Q R108Q). “CCTAACATCAGGGAATTTCCTGATGTTAGG (double strand) [consensus NF-κB]”: binds more weakly (RelA RHR frog (frog)); binds [4]; binds [5]. “CCTAACATCAGGGAATTTCCTGATGTTAGG (double strand) [consensus NF-κB]”: binds more weakly [6].
